# This is one part of the list. These are further read-outs of the screen, such as a control signal, another cell line or another target. No call is given for them. The list favours compounds with an active or inconclusive main result. The note in brackets gives the kind of curve behind each potency; many fits are weak.
# Assay: qHTS Assay for Modulators of Lamin A Splicing
# Details: HeLa LMNA splicing GFP/RFP minigene ratio, 48 h
# Procedure, shortened: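 Read-out is the ratio of GFP to DsRed2 object intensity, acquired by 488 nm laser-scanning cytometry on HeLa lamin A-EGFP minigene reporter cells. Compound incubation 48 hrs at 37 °C in Opti-MEM with 2% FBS; DMSO 0.5% final.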
# [1] = measured here: GFP splicing reporter channel
# [2] = measured here: RFP viability control channel
SMILES,AC50 [1],AC50 [2]
O=C(CN1C(=O)NC2(CCCCCCC2)C1=O)N1CCc2ccccc2C1,"0.1 µM [rising, full curve, poor fit]",
NS(=O)(=O)c1ccc(NC(=O)CSc2ccc3ccccc3n2)cc1,,"1.26 µM [falling, full curve]"
COc1ccc(O)c(C(=O)c2cc(C(=O)NCCc3ccccc3)c(=O)n(CCc3ccccc3)c2)c1,,"11.2 µM [rising, partial curve]"
COc1ccc(/C=N/NC(=O)CN(C2=NS(=O)(=O)c3ccccc32)c2ccccc2)cc1,,"12.6 µM [rising, partial curve]"
Cc1csc2nc(-c3ccc(NS(=O)(=O)c4cc(F)ccc4F)cc3)cn12,"0.398 µM [rising, partial curve, poor fit]",
OC1(c2cccc(C(F)(F)F)c2)CCN(Cc2nnnn2Cc2ccccc2)CC1,"0.0891 µM [rising, full curve, poor fit]",
COc1ccccc1C(=O)Nc1ccc(C(=O)OCc2cc(=O)n3nc(C)sc3n2)cc1,,"0.794 µM [rising, full curve, poor fit]"
COc1ccc(CNc2ncnc3ccc(-c4cccnc4)cc23)c(OC)c1,"11.2 µM [falling, partial curve]","11.2 µM [falling, partial curve]"
Cc1ccc(-n2c(O)c(C=NC3CCS(=O)(=O)C3)c3ccccc3c2=O)cc1C (stereo not given),,"8.91 µM [rising, partial curve, poor fit]"
O=C(c1cc2ccccc2c(=O)o1)N1CCCc2ccccc21,,"5.62 µM [rising, single point]"
COC(=O)c1sc2ncn(CC(=O)NCCc3ccc(OC)c(OC)c3)c(=O)c2c1C,,"35.5 µM [falling, single point]"
CCN(CC)C(=O)CSc1nc2ccc(NC(=O)CSc3nccn3C)cc2s1,,"14.1 µM [rising, single point]"
CCOC(=O)c1[nH]c2ccccc2c1NC(=S)Nc1cccc(C)c1,"7.08 µM [rising, full curve, poor fit]","0.0794 µM [rising, full curve]"
Cn1c(=O)c2c(nc(Br)n2Cc2ccccc2Cl)n(C)c1=O,"15.8 µM [rising, single point]","31.6 µM [rising, single point]"
CN(C)C(=O)c1ccc(-c2nc(NCc3ccccc3)c3ccccc3n2)cc1,"35.5 µM [rising, single point]","35.5 µM [rising, single point]"
Brc1ccc(C2=Nc3ccccc3C(c3ccncc3)=NN2)cc1,"0.562 µM [falling, partial curve, poor fit]","2.51 µM [falling, single point]"
CCn1nc(CC(=O)Nc2ccc(-n3cnnn3)c(OC)c2)c2ccccc2c1=O,,"3.16 µM [rising, partial curve, poor fit]"
CCN(CCO)Cc1csc2cc(C)ccc12,,"35.5 µM [rising, single point]"
COc1ccc2cc(-c3cc(C(=O)O)c4ccccc4n3)ccc2c1,"7.08 µM [falling, partial curve, poor fit]",

SMILES,AC50 [1],AC50 [2]
O=C(COc1ccc(-c2nnc(N3CCCCC3)c3ccccc23)cc1)N1CCCCC1,,"12.6 µM [rising, partial curve, poor fit]"
CCCSc1nc(-c2ccccc2)[nH]c1S(=O)(=O)c1ccc(C)cc1,,"31.6 µM [rising, single point]"
COc1ccc(N2CCN(C(=O)NC34CC5CC(CC(C5)C3)C4)CC2)cc1,,"12.6 µM [rising, single point]"
Cc1nc(OCc2c(C)noc2C)c2ccccc2n1,"0.0708 µM [falling, full curve, poor fit]","0.00891 µM [falling, full curve, poor fit]"
CCOc1ccc(C(=O)NC(=S)Nc2ccccc2N2CCOCC2)cc1Br,"0.00501 µM [falling, full curve, poor fit]","0.00501 µM [falling, full curve, poor fit]"
O=C(Cc1ccccc1)NNC(=O)C1CCN(c2ncccn2)CC1,,"0.0708 µM [rising, full curve, poor fit]"
COc1cc(/C=C2/SC(=S)NC2=O)ccc1OS(=O)(=O)c1ccc(C)cc1,,"35.5 µM [rising, single point]"
COc1ccccc1NC(=O)c1cnc(SCC(=O)N2CCOCC2)n(C)c1=O,"14.1 µM [falling, single point]","35.5 µM [falling, single point]"
C/C(=N\NC1=NCCN1)c1ccccc1,"5.62 µM [rising, partial curve]",
CC(=O)/C(=N/Nc1ccc(C)cc1)Sc1nnc(CCc2ccccc2)n1-c1ccccc1,,"20 µM [rising, single point]"
CC(=O)c1ccc(NC(=S)N2CCN(c3cccc(Cl)c3)CC2)cc1,,"20 µM [rising, partial curve, poor fit]"
CC(C)/C=N/Nc1nc(-c2ccc(Br)cc2)cs1,"17.8 µM [rising, single point]","35.5 µM [rising, single point]"
Cc1ccc(OCC(=O)NC2CCCC2)c(C)c1,,"31.6 µM [rising, single point]"
NS(=O)(=O)c1ccc(Nc2ccc3nonc3c2[N+](=O)[O-])cc1,,"0.0562 µM [rising, full curve, poor fit]"
CCOC(=O)C1=Nc2ccccc2C1=[N+]=[N-],,"15.8 µM [rising, single point]"
Cc1ccccc1/C=N/Nc1ccc(Cl)nn1,,"0.158 µM [rising, full curve, poor fit]"
CCN(CC)S(=O)(=O)c1cccc(NC(=O)c2ccc(-n3nc(C)cc3C)cc2)c1,,"11.2 µM [rising, partial curve]"
CCn1cc([N+](=O)[O-])c(C(=O)Nc2nc(-c3ccc(C)c(C)c3)c(C)s2)n1,,"15.8 µM [rising, single point]"
COc1ccc(OCCn2c(NC(=O)c3ccco3)nc3ccccc32)cc1,"17.8 µM [rising, single point]","25.1 µM [rising, single point]"

SMILES,AC50 [1],AC50 [2]
COc1cccc(-c2nnc(SCc3cccnc3)o2)c1,"15.8 µM [rising, partial curve]","8.91 µM [rising, partial curve]"
O=C(Nc1nnc(C(F)(F)F)s1)c1ccc(N2C(=O)C3C4C=CC(C4)C3C2=O)cc1 (stereo not given),,"35.5 µM [rising, single point]"
CCOc1ccc(Br)cc1S(=O)(=O)Nc1cccc(S(=O)(=O)N(C)c2ccccc2)c1,"35.5 µM [falling, single point]",
O=C(/C=C/c1ccc(OC2CSC2)cc1)c1ccccc1,"22.4 µM [falling, single point]","25.1 µM [falling, single point]"
COc1cccc(-c2nc(N(C)C)c3ccccc3n2)c1,"20 µM [falling, partial curve]",
CCOc1ccc(C(=O)Nc2ccc3nc(SCC(=O)N4CCc5ccccc54)sc3c2)cc1,"1.58 µM [falling, partial curve, poor fit]","22.4 µM [falling, partial curve, poor fit]"
Cc1nn(C)c(C(=O)N2CCc3ccccc32)c1Br,"12.6 µM [rising, single point]","14.1 µM [rising, single point]"
COc1ccccc1N(C)S(=O)(=O)c1ccc(C(=O)Nc2ccc3nc(C)sc3c2)cc1,,"14.1 µM [rising, single point]"
CCNc1ncc2nc(-c3ccc(Cl)cc3)c(=O)n(Cc3cccs3)c2n1,"25.1 µM [falling, partial curve, poor fit]","35.5 µM [falling, single point]"
Cc1ccc2[nH]c3c(c2c1)CCc1cn[nH]c1-3,,"20 µM [rising, partial curve, poor fit]"
CCCc1nc(SCC(=O)Nc2ccc(S(=O)(=O)N(C)C)cc2)c2ccccc2n1,,"7.94 µM [rising, partial curve]"
COc1ccc2cc(C(=O)C3CCCN(Cc4cccc(C)n4)C3)ccc2c1 (stereo not given),,"0.02 µM [falling, full curve, poor fit]"
Cc1cc2cc(CNC(=O)c3cccc([N+](=O)[O-])c3)ccc2[nH]1,,"11.2 µM [rising, single point]"
COC(=O)c1ccc(NC(=O)c2ccc(F)cc2)o1,"17.8 µM [rising, single point]","22.4 µM [rising, single point]"
COc1ccc(C(=O)COC(=O)CCN2C(=O)[C@@H]3[C@H](C2=O)[C@@H]2C[C@H]3C(Br)C2Br)cc1 (stereo not given in full),,"0.0562 µM [rising, full curve, poor fit]"
Cc1ccc(C(=O)N2C(=S)C(c3ccc(F)cc3)=NC23CCN(C)CC3)cc1,"35.5 µM [rising, single point]","35.5 µM [rising, single point]"
Cc1ccc(CNC(=O)c2cc3c(=O)n(Cc4ccco4)ccc3nc2C)cc1,"1 µM [rising, full curve]","0.631 µM [rising, full curve]"
COc1cc(NC(=O)CSc2nc3ncccc3o2)cc(OC)c1,"0.126 µM [falling, full curve, poor fit]","0.1 µM [falling, full curve]"

# Among those listed so far, these contain a thiophene ring, fused or not.
SMILES,AC50 [1],AC50 [2]
COC(=O)c1sc2ncn(CC(=O)NCCc3ccc(OC)c(OC)c3)c(=O)c2c1C,,"35.5 µM [falling, single point]"
CCN(CCO)Cc1csc2cc(C)ccc12,,"35.5 µM [rising, single point]"
CCNc1ncc2nc(-c3ccc(Cl)cc3)c(=O)n(Cc3cccs3)c2n1,"25.1 µM [falling, partial curve, poor fit]","35.5 µM [falling, single point]"
